## Library screening results

Protein sequences, listed by entry. Tags and fused reporters are not part of them.
UniProt E9BF75, entry or part of it: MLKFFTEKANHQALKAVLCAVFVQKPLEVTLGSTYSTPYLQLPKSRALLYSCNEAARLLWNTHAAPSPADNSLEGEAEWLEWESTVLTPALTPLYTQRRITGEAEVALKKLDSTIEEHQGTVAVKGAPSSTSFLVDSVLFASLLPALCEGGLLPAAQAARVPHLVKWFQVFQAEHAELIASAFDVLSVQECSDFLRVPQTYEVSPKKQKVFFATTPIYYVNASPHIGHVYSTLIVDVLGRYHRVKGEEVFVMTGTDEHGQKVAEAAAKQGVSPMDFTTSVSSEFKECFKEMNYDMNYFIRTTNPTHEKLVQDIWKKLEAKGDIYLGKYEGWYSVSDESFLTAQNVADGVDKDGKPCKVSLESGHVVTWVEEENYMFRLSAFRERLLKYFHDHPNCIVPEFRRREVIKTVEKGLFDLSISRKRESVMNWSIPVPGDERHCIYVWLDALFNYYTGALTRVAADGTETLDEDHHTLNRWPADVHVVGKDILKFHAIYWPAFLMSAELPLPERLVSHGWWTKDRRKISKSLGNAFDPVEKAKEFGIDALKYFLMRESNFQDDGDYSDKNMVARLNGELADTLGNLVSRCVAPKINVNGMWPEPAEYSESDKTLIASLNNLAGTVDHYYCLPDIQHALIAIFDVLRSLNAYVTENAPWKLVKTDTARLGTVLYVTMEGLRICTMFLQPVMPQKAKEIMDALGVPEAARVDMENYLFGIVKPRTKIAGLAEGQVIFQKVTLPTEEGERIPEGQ

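Methionyl-tRNA synthetase (putative), Leishmania donovani (UniProt E9BF75). Primary screen of methionyl-tRNA synthetase; the read-out is not stated. The test concentration is not given. Values are per cent inhibition. About 68,000 compounds were tested under these conditions; 0.035% (about 24) showed 50% or more at least once.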

All values are in %.
The record does not define 0% and 100%; most values in the screen are far below 50% and negative numbers occur (in some assays of this library far below -100).
The compounds are a random part of those screened.

CCc1ccc2c(c1)C(CCNC(=O)Cc1ccc(F)cc1)C(=O)N2 (stereo not shown) read 2.703%. Cn1nc(CN2CCCC2)c2c1CN(C(=O)c1ccncc1F)CC2 read 12.33%. With O=C(O)c1cccc2c(Br)cccc12 the screen gave 1.044%. With Cc1c(NC(=O)NCC(C)N2CCOCC2)cccc1OC(F)F (stereo not shown) the screen gave 16.19%. O=C(c1ccoc1)N1CC[C@@H]2O[C@@H](COCC3CCOCC3)CC[C@@H]21 read 0.6667%.

COC1CN(C(=O)COC(C)=O)CCC(=O)N(C)c2ccccc21 (stereo not shown) gave 14.52%. CCN(CC)CCNC(=O)c1ccc(-n2ccc3ccccc32)s1 gave 6.761%. CCc1n[nH]c(C2CN(C(=O)c3cc(C(N)=O)cs3)CCO2)n1 (stereo not shown) gave 19.44%. With O=C(NC[C@H]1OC[C@@H](NCc2ccc(F)cc2)[C@@H]1O)N1CCOCC1 the screen gave 8.475%. For O=C(CN1C[C@H]2CC[C@@H]1CN(Cc1ccccn1)C2)Nc1ccccc1 the result was 22.29%.

COCC(=O)NC[C@]12COC[C@H]1CN(Cc1ccc3c(c1)OCO3)C2 read 15.25%. CC1CCN(Cc2ccc(CNC(=O)c3ccn(C)c(=O)c3)cc2)CC1 gave 10.8%. COCCN1CCC(CNC(=O)Nc2ccc(F)c(Cl)c2)C1 (stereo not shown) read 15.03%. CC(C)n1cc(CN2CCCN(C(=O)c3ccoc3)CC2)cn1 read 7.692%. With CCN(CC)C(=O)c1c(Cl)cnn1CC the screen gave 12.16%.

With CCOc1ccnc(N2CCN(C(=O)c3cc[nH]n3)CC2)n1 the screen gave 16.06%. With CCN1CCN(C2CCN(Cc3cc(C)on3)CC2)C1=O the screen gave 2.347%. Result for CC(=O)N1CCN(C(C)C)CC(COc2ccccc2)C1 (stereo not shown) was 16.15%. For CC(O)c1cn(Cc2ccc(Cl)cc2Cl)nn1 (stereo not shown) the result was 17.79%. For Cc1cc(C(=O)N2CCc3ncc(CN4CCOCC4)n3CC2)no1 the result was 1.684%.

With CC(C)C(=O)NCc1ccccc1NS(=O)(=O)c1ccccc1 the screen gave 1.928%. Result for Cc1ncsc1C(=O)N1CCN(Cc2cscn2)CC1 was 21.41%. Cn1ccnc1CN1CCC2(CC1)CN(c1ccccc1)C(=O)CO2 gave 3.546%. Result for CS(=O)(=O)N1C[C@@H]2COC[C@]2(C(=O)NCCc2cccs2)C1 was 3.361%. With Cn1cc(CCNCc2cc(Cl)c3c(c2)OCCO3)cn1 the screen gave 22.63%.

For Cc1ccc2c(c1)C(=O)NCC1(CCN(C(=O)c3cnccn3)CC1)O2 the result was 11.65%. With c1csc(C(CNCc2cccc3c2OCO3)N2CCOCC2)c1 (stereo not shown) the screen gave 13.03%. O=C(Nc1c(N2CCCC2)cccc1N1CCCC1)c1ccccn1 read 23.71%. Result for CCN(CC1CCOCC1)C(=O)CCNC(=O)c1ccccc1F was 11.72%. For COc1cc(CNCCn2ccnc2)cc2c1OCO2 the result was -12.63%.

Result for CC(C)C(=O)N(C)Cc1nc(N2CCCC2)ncc1-c1ccncc1 was 12.81%. For COc1ccc(-c2noc(CCC(=O)N3CCOCC3(C)C)n2)cc1 the result was 7.692%. Result for O=C(NCCNc1ncccn1)C1CCN(C(=O)c2ccoc2)CC1 was 22.22%. With CCn1nc(C)c(-c2cncn2Cc2ccccc2CN(C)C)c1C the screen gave 19.15%. COC(=O)c1cc(OCC2CCC2)cc(C(=O)N[C@@H](C)CO)c1 read 9.763%.

Result for Cc1cnn(CC(C)NCc2cc(C#N)ccc2F)c1 (stereo not shown) was 14.8%. For COc1ccccc1C(O)CNc1nccc(-c2ccc(C)nc2C)n1 (stereo not shown) the result was 15.11%. Result for CC(=O)N1CCC(c2cccc(-c3cccc(C(=O)O)c3)n2)CC1 was 10.13%. Result for NC(=O)CN1CCC(c2cc(C(F)(F)F)n3ccnc3n2)CC1 was 10.59%. Result for CC(C)N(C)Cc1cnc2n1CCN(CCc1ccccc1)C2 was 21.9%.

CCS(=O)(=O)N1CCc2ccc(NC(=O)Nc3ccccc3C)cc21 read 11.83%. For COc1cnc(CSc2nnc(C)s2)cc1OCC(N)=O the result was 14.58%. Result for Cc1c[nH]c(C2COCCN2C(=O)c2n[nH]c(=O)c3ccccc23)n1 (stereo not shown) was 11.49%. Cc1ncccc1CNCC1CCN(CC(C)O)CC1 (stereo not shown) read 16.91%. CC(C)C(Sc1ccccc1)C(=O)N(C)Cc1nnc2n1CCC2 (stereo not shown) gave 5.013%.

CC(NC(=O)c1cc2n(n1)CCCN(C)C2)c1cn2ccsc2n1 (stereo not shown) gave 8.935%. CCc1ncc(CNCc2cccnc2N(C)C)cn1 read 12.83%. O=C(CC(F)(F)F)N1C[C@@H]2CC[C@H](C1)N(Cc1ccccc1)C2=O gave 6.406%. With CCc1cnc(N2CCC3(CCN(CC)C3=O)CC2)nc1 the screen gave 17.03%. NC(=O)c1cccnc1N1C[C@@H]2CC[C@H](C1)N(Cc1ccccn1)C2=O read 7.184%.

6 of the entries, repeated:

- CCc1ncc(CNCc2cccnc2N(C)C)cn1 | 12.83%
- CCOc1ccnc(N2CCN(C(=O)c3cc[nH]n3)CC2)n1 | 16.06%
- O=C(CN1C[C@H]2CC[C@@H]1CN(Cc1ccccn1)C2)Nc1ccccc1 | 22.29%
- CC(C)n1cc(CN2CCCN(C(=O)c3ccoc3)CC2)cn1 | 7.692%
- Cc1ncsc1C(=O)N1CCN(Cc2cscn2)CC1 | 21.41%
- O=C(NCCNc1ncccn1)C1CCN(C(=O)c2ccoc2)CC1 | 22.22%

Data taken from ChEMBL document CHEMBL3988442, “University of Dundee, Small-Polar-MMV Screening Library” (2021).